Series [1] has as its system glycated hemoglobin HbA1c. The experiment in a line: EIS. The settings on record: HbA1c on gold electrode; 30 min, 0-200 nM aptamer on protein-modified gold electrodes; EIS read-out in 5 mM [Fe(CN)6]3-/4-; commercial protein; single-stranded DNA.
The subject of series [2] is hemoglobin Hb (non-glycated + used as tHb). In words: EIS. The settings on record: Hb on gold electrode, NB up to 200 nM aptamer; 30 min, 0-200 nM aptamer on protein-modified gold electrodes; EIS read-out in 5 mM [Fe(CN)6]3-/4-; commercial protein; single-stranded DNA.
The target in series [3] is BSA (UniProt P02769). The experiment in a line: square wave voltammetry. To be noted: aptamer on AuNP electrode; 5' HS-(CH2)6; 30 min, 0-200 nM aptamer on protein-modified gold electrodes; EIS read-out in 5 mM [Fe(CN)6]3-/4-; commercial protein; single-stranded DNA.
In series [4] the test system is glycated hemoglobin HbA1c. In words: square wave voltammetry. To be noted: aptamer on AuNP electrode, LOD 0.2 ng/mL; 5' HS-(CH2)6; 30 min, 0-200 nM aptamer on protein-modified gold electrodes; EIS read-out in 5 mM [Fe(CN)6]3-/4-; commercial protein; single-stranded DNA.
Series [5] concerns the target BSA (UniProt P02769). In words: EIS. To be noted: specificity control; 30 min, 0-200 nM aptamer on protein-modified gold electrodes; EIS read-out in 5 mM [Fe(CN)6]3-/4-; commercial protein; single-stranded DNA.
Series [6] concerns hemoglobin Hb (non-glycated + used as tHb). In words: square wave voltammetry. To be noted: aptamer on AuNP electrode, LOD 0.34 ng/mL; 5' HS-(CH2)6; 30 min, 0-200 nM aptamer on protein-modified gold electrodes; EIS read-out in 5 mM [Fe(CN)6]3-/4-; commercial protein; single-stranded DNA.

Protein sequences, listed by entry. Tags and fused reporters are not part of them. Residues count along the entry.
UniProt P02769, 25-607: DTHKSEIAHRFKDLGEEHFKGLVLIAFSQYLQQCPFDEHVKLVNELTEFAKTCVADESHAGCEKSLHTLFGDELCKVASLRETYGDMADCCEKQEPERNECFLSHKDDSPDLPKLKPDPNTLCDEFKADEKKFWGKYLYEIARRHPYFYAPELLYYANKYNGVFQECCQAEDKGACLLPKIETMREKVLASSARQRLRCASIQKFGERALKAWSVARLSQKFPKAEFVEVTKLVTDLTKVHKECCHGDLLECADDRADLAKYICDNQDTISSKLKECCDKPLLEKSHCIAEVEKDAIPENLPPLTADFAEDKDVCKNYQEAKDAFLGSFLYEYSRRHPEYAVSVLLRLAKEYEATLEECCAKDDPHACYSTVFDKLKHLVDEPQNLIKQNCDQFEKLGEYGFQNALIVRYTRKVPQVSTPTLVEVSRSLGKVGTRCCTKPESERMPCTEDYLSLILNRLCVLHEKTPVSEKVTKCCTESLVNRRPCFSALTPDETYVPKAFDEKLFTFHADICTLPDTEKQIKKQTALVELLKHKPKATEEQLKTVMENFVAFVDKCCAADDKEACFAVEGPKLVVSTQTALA

As usually defined, the Kd is the equilibrium constant for the complex coming apart.

For some of these results: A negative result means that nothing was seen under these conditions. For some of these results: At least one verdict rests on a figure or table, not on a statement of the authors. For some of these results: For at least one entry, the source does not settle the construct or the ends of the probe.

As for “CGACACCAGCACACAGACCCGAGACACACGTCAGATCAACAGCGACCGTATCATTGGTTG [G11]”, in series [1], the Kd was determined as 108 nM. Besides, the binding result in series [2] is given as “no binding”.
Take “GGGGACACAGCAACACACCCACCCACCAGCCCCAGCATCATGCCCATCCGTCGTGTGTG [thiol-G20]”: the binding result with BSA [3] is “no binding”; in series [4], “binds”.
For the sequence “ACGCACACCAGAGACAAGTAGCCCCCCAAACGCGGCCACGGAACGCAGCACCTCCATGGC [G15]”, in the series with BSA [5], the binding result is on record as “no binding”.
Regarding “GGACACGGCAAAGGGGTATAGCCTACCGGACCGTGGACATGGAATTGTGTGCTGCGTGG [G23]”, in series [1], the Kd was found to be 303 nM. Moreover, the binding result in series [2] is “no binding”.
Regarding “GGGGACACAGCAACACACCCACCCACCAGCCCCAGCATCATGCCCATCCGTCGTGTGTG [G20]”, the binding result (with BSA [5]; in series [2]) was “no binding” in each case.
On to “ACGCACACCAGAGACAAGTAGCCCCCCAAACGCGGCCACGGAACGCAGCACCTCCATGGC [thiol-G15]”, for which the results for the binding result (in the series with BSA [3]; in series [6]) were “no binding” and “binds”, respectively.
As to “GGCCACAGCAGCCAGTACACCCACCCACCAGCCCCGTCAACGACCTGAACCTGCCCTGTGTG [G18]”, the Kd in series [1] is 95 nM. Moreover, the binding result in series [2] was “no binding”.

These data come from paper PMC5430690.
